Data published in PubChem BioAssay AID2551 (National Center for Advancing Translational Sciences (NCATS), 2010).
Out of some 310,000 compounds screened, about 17,000 (5.5%) were called active. Inconclusive means that the source gave no clear call. Such entries were picked first, then a sample of the others. The call rests on the fitted dose curve; in most records, active means well fitted inhibition curve with a large enough effect; inconclusive means small, poorly fitted or top-dose-only effect, or effect the other way; inactive means no such curve, though single readings can be large or run the other way. A potency beside an inconclusive call is a rough fit, not a confirmed value.

By UniProt entry, the sequences of proteins in these tests, tags left out. Where a name states a change or a piece, a line headed by the entry shows the natural chain unless it says otherwise.
UniProt P51450: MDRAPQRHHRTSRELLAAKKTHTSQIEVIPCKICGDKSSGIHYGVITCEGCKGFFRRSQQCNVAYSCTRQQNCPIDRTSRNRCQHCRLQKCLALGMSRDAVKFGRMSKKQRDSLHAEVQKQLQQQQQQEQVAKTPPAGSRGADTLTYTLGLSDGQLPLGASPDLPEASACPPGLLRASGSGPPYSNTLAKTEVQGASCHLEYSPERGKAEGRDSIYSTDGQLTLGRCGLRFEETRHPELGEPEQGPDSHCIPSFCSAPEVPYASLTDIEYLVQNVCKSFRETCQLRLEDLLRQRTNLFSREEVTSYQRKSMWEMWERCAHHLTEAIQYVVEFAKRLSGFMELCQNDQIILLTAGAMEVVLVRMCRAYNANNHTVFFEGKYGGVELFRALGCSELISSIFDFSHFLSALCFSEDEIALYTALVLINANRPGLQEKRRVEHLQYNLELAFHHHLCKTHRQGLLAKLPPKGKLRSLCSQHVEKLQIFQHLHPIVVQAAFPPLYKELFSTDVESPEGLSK

Molecular target: Nuclear receptor ROR-gamma (Mus musculus) (UniProt P51450)
Assay: qHTS for inhibitors of ROR gamma transcriptional activity; further: nearly all actives have a fitted effect of over 60% in size
Conditions: Drosophila S2 Gal4-RORgamma UAS-luciferase reporter, 20 h; activity change, negative = inhibition: at 53.6 µM (top of the series)
Procedure, shortened: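 Luciferase reporter read in Schneider cells carrying Gal4-RORγ (mouse) and UAS-Photinus luciferase; cells given compound 1 h before 700 uM copper sulfate induction, then incubated 20 h at ambient temperature.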
On the % scale 0 is the no-effect control and ±100 the full control effect; potency means the concentration at half of the fitted maximal effect.

Potency, active:
Cc1ccc(S(=O)(=O)NNC(=S)Nc2cccc(C)c2C)cc1 5.01 µM
O=C(NC1=NCCS1)C1COc2ccccc2O1 (stereo not drawn) 6.31 µM
S=C(NCc1ccco1)N1CCN(C(c2ccccc2)c2ccccc2)CC1 12.6 µM
CC(C)C[C@H](NC(=O)c1nc[nH]c1C(=O)NCC(=O)OCc1ccccc1)C(=O)OC(C)(C)C 12.6 µM
O=C(C1CC1)N1N=C(c2ccccc2)CC1(O)C(F)(F)C(F)(F)F (stereo not drawn) 11.2 µM
CCN(CC)S(=O)(=O)c1ccc(C(=O)Nc2nnc(-c3ccco3)o2)cc1 0.562 µM
COC(=O)/C=C1\N/C(=N\c2nc(C)cc(C)n2)N(c2ccc(C)c(C)c2)C1=O 11.2 µM
S=c1nc[nH]c2c1cnn2Cc1ccccc1 22.4 µM

Potency, inconclusive:
O=C(Cn1ncc(Cl)c(Cl)c1=O)NCC1CCCCC1 14.1 µM [inhibitor, single point]
COc1ccc(N=Nc2nc3cc(Br)c(Br)cc3n2C)c(OC)c1 12.6 µM [inhibitor, partial curve, poor fit]
CCn1c2ccccc2c2nnc(SCC(N)=O)nc21 35.5 µM [inhibitor, single point]
Cc1ccc(CN2CC(C(=O)Nc3cccc(S(=O)(=O)N4CCCCC4)c3)CC2=O)cc1 (stereo not drawn) 15.8 µM [activator, partial curve]
CC1(CCC(=O)N2CCCC(N3CCN(c4cccc(C(F)(F)F)c4)CC3)C2)CC1 (stereo not drawn) 17.8 µM [activator, partial curve, poor fit]
CCCCNC(=O)/C(C#N)=C/c1ccc(C(=O)OC)cc1 12.6 µM [inhibitor, single point]
O=C(NCCc1ccccc1)NC1CCCCC1 10 µM [inhibitor, single point]
Cc1nn(C)cc1CN(C)C(=O)c1cc(COc2ccc(F)cc2F)on1 12.6 µM [activator, partial curve]
CC1=NN(c2ccccc2)C(=O)C1c1ccccc1 (stereo not drawn) 10 µM [activator, partial curve]
CCC(c1nnc(SCC(=O)Nc2cc(Cl)ccc2C#N)n1C1CCCCC1)N(C)C (stereo not drawn) 15.8 µM [inhibitor, single point]
CN(C)S(=O)(=O)c1ccc(Cl)c(NC(=O)CSc2nc3c(cc2C#N)C(=O)CC(C)(C)C3)c1 5.62 µM [activator, full curve]
COC(=O)COc1coc(CN2CCN(c3cccc(Cl)c3)CC2)cc1=O 12.6 µM [inhibitor, single point]
O=C(Nc1ccc(Cl)cc1)c1cnc(-c2ccccc2)nc1-c1ccccc1 31.6 µM [inhibitor, single point]
Cc1ccccc1NC(=O)CSc1nnc(Cc2cccn2C)n1-c1ccc(F)cc1 35.5 µM [inhibitor, single point]
COc1ccc(Nc2nc(NC(C)(C)C)nc(N3CCCC3)n2)c(OC)c1 17.8 µM [inhibitor, single point]
C#CCSc1nnc(-c2ccccc2)c(=O)[nH]1 35.5 µM [activator, single point]
COc1cc(OC)c(C(=O)NC2CC(C)(C)NC(C)(C)C2)cc1OC 2 µM [inhibitor, partial curve]
COc1ccccc1N(CC(=O)NCc1ccccc1)C(=O)CCC(=O)Nc1cc(C)ccn1 0.0794 µM [activator, full curve, poor fit]
CC(C)(C)NC(=O)CN(C(=O)CNC(=O)c1cccs1)c1ccc2c(c1)OCCO2 0.355 µM [inhibitor, full curve, poor fit]
N#CC(CO)(Cc1ccc(OC(F)F)cc1)c1nc2ccccc2[nH]1 (stereo not drawn) 12.6 µM [activator, single point]
FC(F)Oc1ccccc1/C=N/Nc1nc2ccccc2o1 17.8 µM [inhibitor, partial curve, poor fit]
Fc1ccccc1CSc1nncn1NC/C=C/c1ccccc1 35.5 µM [inhibitor, single point]
O=C(/C=C/c1ccccc1)c1ccoc1 2.51 µM [inhibitor, partial curve, poor fit]
COc1ccccc1CNc1ccnc(-c2ccoc2)n1 11.2 µM [activator, single point]
Cc1ccc(C(C)NC(=O)C2CCCO2)cc1C (stereo not drawn) 5.62 µM [inhibitor, single point]

Quoted at random: 3 compounds from above, in no set order.
Potency, inconclusive:
O=C(Nc1ccc(Cl)cc1)c1cnc(-c2ccccc2)nc1-c1ccccc1 31.6 µM [inhibitor, single point]
FC(F)Oc1ccccc1/C=N/Nc1nc2ccccc2o1 17.8 µM [inhibitor, partial curve, poor fit]
COc1ccc(Nc2nc(NC(C)(C)C)nc(N3CCCC3)n2)c(OC)c1 17.8 µM [inhibitor, single point]

Following part.

Activity change, negative = inhibition, inactive:
O=[N+]([O-])c1ccccc1-c1ccc(CN2CCN(c3ccccc3)CC2)o1 -4.96%
Cc1cc(C)cc(NC(=O)C2CCN(c3nccs3)CC2)c1 -11.8%
Cc1nn(C)c(Cl)c1CN1CCCC(CO)(Cc2cccc(Cl)c2)C1 (stereo not drawn) 0.611%
COc1ccc(OC)c(C2C(C(=O)c3cc4ccccc4o3)=C(O)C(=O)N2c2cc(C)on2)c1 (stereo not drawn) 9.96%
Cc1ccc(NC(=O)CN(C)C(=O)c2ccc(Cl)nc2)cc1 -16.4%
CCOc1ccc(NC(=O)C[n+]2ccc(N(C)C)cc2)cc1 13.8%
Cc1cc(O)c2c(c1O)C(=O)c1c(O)cc(C)c(O)c1C2=O -11.4%
Nn1c(SC/C=C/c2ccccc2)nnc1-c1cccnc1 29.9%
Cc1nc(N(C)C)c2sc(=S)n(Cc3ccccc3)c2n1 -29.1%
Cc1cc(O)c(/C=N/Nc2ccccc2Cl)c(=O)o1 -8.07%
O=S(=O)(Nc1ccc(N2CCCCC2)cc1)c1cccc2cccnc12 -6.19%
COC(=O)c1c(C)nc2ccccc2c1-c1ccccc1 -28.2%
COc1ccc(-c2nnc(SCC(=O)NNC(=O)Cc3ccccc3)n2C)cc1OC -9.93%
CCCC(c1nnnn1CCOC)N1CCN(c2nc3ccccc3s2)CC1 (stereo not drawn) 36%
Cc1cc(/C=N/NC(=O)C(=O)N2CCCC2)c(C)n1-c1cccc(Br)c1 1.77%
